Experimental data: patent US9133240B2, “Compounds binding to the bacterial beta ring” (Centre National de la Recherche Scientifique, priority 2011, dated 2015)
At least one peptide structure holds a part that was inferred or is arguable (an end, a ring closure or a residue). For at least one compound, name, drawing or mass did not settle the structure. Square brackets hold non-standard residues; d marks the D form. Peptide text beside a SMILES is read from it. * marks the point of attachment. ξ: configuration not given here. Phe(3,4-Cl2) = N[C@@H](Cc1ccc(Cl)c(Cl)c1)C(=O)O; ξGly(dodecyl) = CCCCCCCCCCCCC(N)C(=O)O; Cha = N[C@@H](CC1CCCCC1)C(=O)O; X1 = O=C(C=Cc1ccccc1)*

Chains of the proteins cited; added tags and fusions are not shown. Lines headed by an entry give the natural chain unless they say otherwise; changes in a name come on top.
UniProt P0A988: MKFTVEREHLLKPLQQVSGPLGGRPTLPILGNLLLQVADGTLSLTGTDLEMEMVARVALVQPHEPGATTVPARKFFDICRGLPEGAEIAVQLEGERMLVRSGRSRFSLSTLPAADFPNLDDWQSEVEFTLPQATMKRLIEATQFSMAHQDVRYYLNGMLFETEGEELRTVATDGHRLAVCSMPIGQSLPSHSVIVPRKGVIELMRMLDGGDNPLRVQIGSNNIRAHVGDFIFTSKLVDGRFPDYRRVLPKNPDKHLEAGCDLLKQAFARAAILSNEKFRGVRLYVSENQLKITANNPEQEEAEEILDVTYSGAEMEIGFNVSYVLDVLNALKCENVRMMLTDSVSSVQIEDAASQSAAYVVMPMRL

Target: T1, E. coli β clamp (Escherichia coli, UniProt P0A988)
T1 construct: made in house; host or cells: E. coli BL21 (β); P1 by solid-phase synthesis
Assay: SPR competition assay: inhibition of P1-β interaction by challenging peptides;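 note: SPR responses corrected for background, then fitted with a 1:1 Langmuir binding model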
Assay type: binding
Details: for Ki: concentration of ligand that challenges 50% of the binding of natural peptide P1

SMILES	IC50 (inhibition of binding of β ring (0.25 μM) to immobilized P1) [µM]	Ki [µM]
CCCCCCCCCCCCC(NC(=O)[C@H](CC(C)C)NC(=O)[C@H](CC(=O)O)NC(=O)[C@H](CC1CCCCC1)NC(=O)[C@H](CCC(N)=O)NC(C)=O)C(=O)O (stereo partly drawn) [Peptide P22, Ac-Q Cha DL Atda] (Ac-Q[Cha]DL[ξGly(dodecyl)]-OH; C-terminus assumed)	3.72	–
CC(=O)N[C@@H](CCCNC(=N)N)C(=O)N[C@@H](CCC(N)=O)C(=O)N[C@@H](CC1CCCCC1)C(=O)N[C@@H](CCCNC(=N)N)C(=O)N[C@@H](CC(C)C)C(=O)N[C@@H](Cc1ccccc1)C(=O)O [Peptide P14-7, Ac R Q Cha R L F] (Ac-RQ[Cha]RLF-OH; N-terminus and C-terminus assumed)	–	> 10
CC(=O)N[C@@H](CCCNC(=N)N)C(=O)N[C@@H](CCC(N)=O)C(=O)N[C@@H](CC1CCCCC1)C(=O)N[C@@H](CCCNC(=N)N)C(=O)N[C@@H](CC(C)C)C(=O)N[C@@H](Cc1ccc(Cl)c(Cl)c1)C(N)=O [Peptide P14-6, Ac R Q Cha R L diClF] (Ac-RQ[Cha]RL[Phe(3,4-Cl2)]-NH2; C-terminus assumed)	–	> 10
CC(C)C[C@H](NC(=O)[C@H](CC(N)=O)NC(=O)[C@H](CC1CCCCC1)NC(=O)[C@H](CCC(N)=O)NC(=O)[C@H](CCCNC(=N)N)NC(=O)C=Cc1ccccc1)C(=O)N[C@@H](Cc1ccc(Cl)c(Cl)c1)C(=O)O [Peptide P14-5, Cin R Q Cha N L diClF] (X1-RQ[Cha]NL[Phe(3,4-Cl2)]-OH; C-terminus assumed)	–	3.25
